Assay results published in the supplement of paper PMC4604168 (melanoma cell lines).
The other results are listed elsewhere or left out. Repeats are few or missing, and single values can be far off.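 Imaging used 1,536-well plates; nuclei positive for cleaved PARP by antibody were divided by total DNA-stained nuclei to yield the apoptosis fraction. Doses for screening kept most cells viable, and cell lines differ markedly in resting and induced cleaved-PARP levels.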

Experiments:
Test in all cases: cleaved PARP positive nuclei fraction relative to DMSO control; melanoma cells; higher = more apoptosis
Settings in all cases: library dose: low library concentration; 72 h
[1] = tested on: MZ2-MEL
[2] = tested on: MeWo
[3] = tested on: RPMI7951
[4] = tested on: RVH-421
[5] = tested on: SkMel28
[6] = tested on: SkMel2
[7] = tested on: SkMel30
[8] = tested on: UACC62
[9] = tested on: WM115
[10] = tested on: WM1716
[11] = tested on: WM1745
[12] = tested on: WM3526
[13] = tested on: WM3619
[14] = tested on: WM451Lu

SMILES	cleaved PARP positive nuclei fraction [1]	cleaved PARP positive nuclei fraction [2]	cleaved PARP positive nuclei fraction [3]	cleaved PARP positive nuclei fraction [4]	cleaved PARP positive nuclei fraction [5]	cleaved PARP positive nuclei fraction [6]	cleaved PARP positive nuclei fraction [7]	cleaved PARP positive nuclei fraction [8]	cleaved PARP positive nuclei fraction [9]	cleaved PARP positive nuclei fraction [10]	cleaved PARP positive nuclei fraction [11]	cleaved PARP positive nuclei fraction [12]	cleaved PARP positive nuclei fraction [13]	cleaved PARP positive nuclei fraction [14]
CCCCCCCCc1ccc(CCC(N)(CO)CO)cc1 [fingolimod] + CC(C)C[C@H](NC(=O)[C@H](Cc1ccccc1)NC(=O)c1cnccn1)B(O)O [Bortezomib] (first compound 2 µM, partner dose 0.001 µM)	104%	116%	251%	52.7%	84.1%	237%	28.9%	60.2%	165%	117%	137%	129%	351%	86.2%
CN(c1ncccc1CNc1nc(Nc2ccc3c(c2)CC(=O)N3)ncc1C(F)(F)F)S(C)(=O)=O + C=C(c1ccc(C(=O)O)cc1)c1cc2c(cc1C)C(C)(C)CCC2(C)C [Bexarotene] (first compound 0.08 µM, partner dose 2 µM)	232%	38.8%	177%	82%	155%	82.7%	35.8%	63.9%	168%	178%	123%	104%	83.3%	132%
COc1ccc(C2=N[C@@H](c3ccc(Cl)cc3)[C@@H](c3ccc(Cl)cc3)N2C(=O)N2CCNC(=O)C2)c(OC(C)C)c1 [Nutlin-3] + COc1ccc(Cl)c(Nc2nc3ccccc3nc2NS(=O)(=O)c2cccc(NC(=O)C(C)(C)N)c2)c1 [XL147] (first compound 0.1 µM, partner dose 0.8 µM)	159%	28.1%	119%	119%	83.2%	106%	121%	63%	35.3%	147%	87.5%	68.1%	101%	40%
NC1(c2ccc(-c3nc4ccn5c(=O)[nH]nc5c4cc3-c3ccccc3)cc2)CCC1 + C=C(c1ccc(C(=O)O)cc1)c1cc2c(cc1C)C(C)(C)CCC2(C)C [Bexarotene] (first compound 0.4 µM, partner dose 2 µM)	207%	165%	94.1%	144%	214%	211%	69%	230%	120%	93.1%	102%	123%	91.2%	153%
NC1(c2ccc(-c3nc4ccn5c(=O)[nH]nc5c4cc3-c3ccccc3)cc2)CCC1 + COc1ccc(Cl)c(Nc2nc3ccccc3nc2NS(=O)(=O)c2cccc(NC(=O)C(C)(C)N)c2)c1 [XL147] (first compound 0.4 µM, partner dose 0.8 µM)	81.4%	80.7%	39.2%	398%	164%	43.9%	90.7%	142%	187%	154%	103%	52.1%	97.1%	96%
NC1(c2ccc(-c3nc4ccn5c(=O)[nH]nc5c4cc3-c3ccccc3)cc2)CCC1 + COCC[n+]1c2c(n(Cc3cnccn3)c1C)C(=O)c1ccccc1C2=O [YM155] (first compound 0.4 µM, partner dose 0.0004 µM)	275%	135%	134%	48.2%	119%	106%	230%	82.7%	265%	284%	110%	86%	193%	439%
C[C@@H](N)c1ccc(C(=O)Nc2ccnc3[nH]ccc23)cc1 + O=C(O)[C@@H]1[O][Sb](=[O])([O][Sb]2(=[O])[O][C@H]([C@H](O)CO)[C@H](O)[C@H](C(=O)O)[O]2)[O][C@H]([C@H](O)CO)[C@@H]1O [stibogluconate] (first compound 0.4 µM, partner dose 2 µM)	65.8%	88.2%	196%	127%	57%	197%	103%	278%	187%	349%	123%	74.9%	68.8%	41.3%
C[C@@H](N)c1ccc(C(=O)Nc2ccnc3[nH]ccc23)cc1 + Nc1cccc2c1CN(C1CCC(=O)NC1=O)C2=O [lenalidomide] (first compound 0.4 µM, partner dose 1 µM)	160%	306%	137%	88.1%	167%	112%	86.4%	45.5%	71.5%	258%	101%	49%	91.2%	97%
CS(=O)(=O)c1ccc(C(=O)Nc2ccc(Cl)c(-c3ccccn3)c2)c(Cl)c1 [vismodegib] + CS(=O)(=O)CCNCc1ccc(-c2ccc3ncnc(Nc4ccc(OCc5cccc(F)c5)c(Cl)c4)c3c2)o1 [lapatinib] (first compound 1 µM, partner dose 0.8 µM)	88.9%	106%	164%	172%	207%	40.8%	53.9%	26.4%	96.6%	79.4%	96.6%	124%	96.2%	43%
C[C@]1(O)C[C@@H](c2nc(-c3ccc4ccc(-c5ccccc5)nc4c3)c3c(N)nccn32)C1 + OCc1c[nH]c2ccccc12 [Indole-3-carbinol] (first compound 0.4 µM, partner dose 0.8 µM)	127%	42.7%	169%	50%	87.8%	156%	148%	131%	45.5%	89%	122%	97%	92.3%	94.2%
NC(=O)c1ccc(N(C(N)=O)c2c(F)cccc2F)nc1-c1ccc(F)cc1F + CCCCCCCCc1ccc(CCC(N)(CO)CO)cc1 [fingolimod] (first compound 0.4 µM, partner dose 2 µM)	81.7%	41.1%	301%	359%	89.5%	207%	57.9%	248%	82.1%	172%	171%	93.8%	132%	84.3%
Cn1sc(=O)n(Cc2ccccc2)c1=O + Cc1cc(Nc2cc(N3CCN(C)CC3)nc(/C=C/c3ccccc3)n2)n[nH]1 [ENMD2076] (first compound 0.4 µM, partner dose 0.04 µM)	117%	38.8%	67.1%	100%	40.1%	75.9%	86.1%	42.3%	135%	144%	78.8%	88%	99.6%	140%
CC1(C)CCC(c2ccc(Cl)cc2)=C(CN2CCN(c3ccc(C(=O)NS(=O)(=O)c4ccc(N[C@H](CCN5CCOCC5)CSc5ccccc5)c(S(=O)(=O)C(F)(F)F)c4)cc3)CC2)C1 + CNC(=O)c1cc(Oc2ccc(NC(=O)Nc3ccc(Cl)c(C(F)(F)F)c3)cc2)ccn1 [sorafenib] (first compound 0.4 µM, partner dose 0.4 µM)	399%	412%	45.3%	65.4%	96.1%	172%	91.3%	95.8%	266%	172%	392%	30.2%	96.8%	76.3%
CCN(CC)CCNC(=O)c1c(C)[nH]c(/C=C2\C(=O)Nc3ccc(F)cc32)c1C [sunitinib] + O=C(O)[C@@H]1[O][Sb](=[O])([O][Sb]2(=[O])[O][C@H]([C@H](O)CO)[C@H](O)[C@H](C(=O)O)[O]2)[O][C@H]([C@H](O)CO)[C@@H]1O [stibogluconate] (first compound 0.4 µM, partner dose 2 µM)	67%	42.9%	76%	125%	90.6%	55%	41.4%	165%	28.1%	51.7%	110%	45.3%	90.3%	39.3%
NC(=O)c1ccc(N(C(N)=O)c2c(F)cccc2F)nc1-c1ccc(F)cc1F + CN(c1ncccc1CNc1nc(Nc2ccc3c(c2)CC(=O)N3)ncc1C(F)(F)F)S(C)(=O)=O [PF562271] (first compound 0.4 µM, partner dose 0.08 µM)	106%	104%	134%	69.3%	117%	167%	40.5%	216%	193%	112%	110%	94.7%	101%	207%
NC1(c2ccc(-c3nc4ccn5c(=O)[nH]nc5c4cc3-c3ccccc3)cc2)CCC1 + CN1CCN(c2ccc3nc(-c4c(N)c5c(F)cccc5[nH]c4=O)[nH]c3c2)CC1 [Dovitinib] (first compound 0.4 µM, partner dose 0.1 µM)	27.2%	61.7%	45.2%	143%	141%	48.5%	68.7%	308%	343%	156%	102%	130%	108%	58.5%
Cn1sc(=O)n(Cc2ccccc2)c1=O + CCCCCCCCc1ccc(CCC(N)(CO)CO)cc1 [fingolimod] (first compound 0.4 µM, partner dose 2 µM)	99.3%	39.3%	198%	44.8%	154%	109%	20.3%	59.5%	242%	479%	99%	44.5%	98.1%	85.1%
CCCCCCCCc1ccc(CCC(N)(CO)CO)cc1 [fingolimod] + Cc1cc(Nc2cc(N3CCN(C)CC3)nc(/C=C/c3ccccc3)n2)n[nH]1 [ENMD2076] (first compound 2 µM, partner dose 0.04 µM)	121%	67.8%	166%	184%	212%	43.4%	417%	247%	108%	51.8%	126%	87.9%	108%	28.2%
COc1ccc(C2=N[C@@H](c3ccc(Cl)cc3)[C@@H](c3ccc(Cl)cc3)N2C(=O)N2CCNC(=O)C2)c(OC(C)C)c1 [Nutlin-3] + C#Cc1cccc(Nc2ncnc3cc(OCCOC)c(OCCOC)cc23)c1 [erlotinib] (first compound 0.1 µM, partner dose 0.8 µM)	173%	62.6%	66.5%	58.8%	119%	97.7%	103%	44.2%	24.3%	69.2%	119%	37.9%	98.5%	77.4%

As entered above:
CS(=O)(=O)c1ccc(C(=O)Nc2ccc(Cl)c(-c3ccccn3)c2)c(Cl)c1 [vismodegib] + CS(=O)(=O)CCNCc1ccc(-c2ccc3ncnc(Nc4ccc(OCc5cccc(F)c5)c(Cl)c4)c3c2)o1 [lapatinib] (first compound 1 µM, partner dose 0.8 µM) – cleaved PARP positive nuclei fraction [12]: 124%
CN(c1ncccc1CNc1nc(Nc2ccc3c(c2)CC(=O)N3)ncc1C(F)(F)F)S(C)(=O)=O + C=C(c1ccc(C(=O)O)cc1)c1cc2c(cc1C)C(C)(C)CCC2(C)C [Bexarotene] (first compound 0.08 µM, partner dose 2 µM) – cleaved PARP positive nuclei fraction [3]: 177%
